{"sequences": {"note": "Chains of the proteins cited; added tags and fusions are not shown. Lines headed by an entry give the natural chain unless they say otherwise; changes in a name come on top.", "UniProt P42858": "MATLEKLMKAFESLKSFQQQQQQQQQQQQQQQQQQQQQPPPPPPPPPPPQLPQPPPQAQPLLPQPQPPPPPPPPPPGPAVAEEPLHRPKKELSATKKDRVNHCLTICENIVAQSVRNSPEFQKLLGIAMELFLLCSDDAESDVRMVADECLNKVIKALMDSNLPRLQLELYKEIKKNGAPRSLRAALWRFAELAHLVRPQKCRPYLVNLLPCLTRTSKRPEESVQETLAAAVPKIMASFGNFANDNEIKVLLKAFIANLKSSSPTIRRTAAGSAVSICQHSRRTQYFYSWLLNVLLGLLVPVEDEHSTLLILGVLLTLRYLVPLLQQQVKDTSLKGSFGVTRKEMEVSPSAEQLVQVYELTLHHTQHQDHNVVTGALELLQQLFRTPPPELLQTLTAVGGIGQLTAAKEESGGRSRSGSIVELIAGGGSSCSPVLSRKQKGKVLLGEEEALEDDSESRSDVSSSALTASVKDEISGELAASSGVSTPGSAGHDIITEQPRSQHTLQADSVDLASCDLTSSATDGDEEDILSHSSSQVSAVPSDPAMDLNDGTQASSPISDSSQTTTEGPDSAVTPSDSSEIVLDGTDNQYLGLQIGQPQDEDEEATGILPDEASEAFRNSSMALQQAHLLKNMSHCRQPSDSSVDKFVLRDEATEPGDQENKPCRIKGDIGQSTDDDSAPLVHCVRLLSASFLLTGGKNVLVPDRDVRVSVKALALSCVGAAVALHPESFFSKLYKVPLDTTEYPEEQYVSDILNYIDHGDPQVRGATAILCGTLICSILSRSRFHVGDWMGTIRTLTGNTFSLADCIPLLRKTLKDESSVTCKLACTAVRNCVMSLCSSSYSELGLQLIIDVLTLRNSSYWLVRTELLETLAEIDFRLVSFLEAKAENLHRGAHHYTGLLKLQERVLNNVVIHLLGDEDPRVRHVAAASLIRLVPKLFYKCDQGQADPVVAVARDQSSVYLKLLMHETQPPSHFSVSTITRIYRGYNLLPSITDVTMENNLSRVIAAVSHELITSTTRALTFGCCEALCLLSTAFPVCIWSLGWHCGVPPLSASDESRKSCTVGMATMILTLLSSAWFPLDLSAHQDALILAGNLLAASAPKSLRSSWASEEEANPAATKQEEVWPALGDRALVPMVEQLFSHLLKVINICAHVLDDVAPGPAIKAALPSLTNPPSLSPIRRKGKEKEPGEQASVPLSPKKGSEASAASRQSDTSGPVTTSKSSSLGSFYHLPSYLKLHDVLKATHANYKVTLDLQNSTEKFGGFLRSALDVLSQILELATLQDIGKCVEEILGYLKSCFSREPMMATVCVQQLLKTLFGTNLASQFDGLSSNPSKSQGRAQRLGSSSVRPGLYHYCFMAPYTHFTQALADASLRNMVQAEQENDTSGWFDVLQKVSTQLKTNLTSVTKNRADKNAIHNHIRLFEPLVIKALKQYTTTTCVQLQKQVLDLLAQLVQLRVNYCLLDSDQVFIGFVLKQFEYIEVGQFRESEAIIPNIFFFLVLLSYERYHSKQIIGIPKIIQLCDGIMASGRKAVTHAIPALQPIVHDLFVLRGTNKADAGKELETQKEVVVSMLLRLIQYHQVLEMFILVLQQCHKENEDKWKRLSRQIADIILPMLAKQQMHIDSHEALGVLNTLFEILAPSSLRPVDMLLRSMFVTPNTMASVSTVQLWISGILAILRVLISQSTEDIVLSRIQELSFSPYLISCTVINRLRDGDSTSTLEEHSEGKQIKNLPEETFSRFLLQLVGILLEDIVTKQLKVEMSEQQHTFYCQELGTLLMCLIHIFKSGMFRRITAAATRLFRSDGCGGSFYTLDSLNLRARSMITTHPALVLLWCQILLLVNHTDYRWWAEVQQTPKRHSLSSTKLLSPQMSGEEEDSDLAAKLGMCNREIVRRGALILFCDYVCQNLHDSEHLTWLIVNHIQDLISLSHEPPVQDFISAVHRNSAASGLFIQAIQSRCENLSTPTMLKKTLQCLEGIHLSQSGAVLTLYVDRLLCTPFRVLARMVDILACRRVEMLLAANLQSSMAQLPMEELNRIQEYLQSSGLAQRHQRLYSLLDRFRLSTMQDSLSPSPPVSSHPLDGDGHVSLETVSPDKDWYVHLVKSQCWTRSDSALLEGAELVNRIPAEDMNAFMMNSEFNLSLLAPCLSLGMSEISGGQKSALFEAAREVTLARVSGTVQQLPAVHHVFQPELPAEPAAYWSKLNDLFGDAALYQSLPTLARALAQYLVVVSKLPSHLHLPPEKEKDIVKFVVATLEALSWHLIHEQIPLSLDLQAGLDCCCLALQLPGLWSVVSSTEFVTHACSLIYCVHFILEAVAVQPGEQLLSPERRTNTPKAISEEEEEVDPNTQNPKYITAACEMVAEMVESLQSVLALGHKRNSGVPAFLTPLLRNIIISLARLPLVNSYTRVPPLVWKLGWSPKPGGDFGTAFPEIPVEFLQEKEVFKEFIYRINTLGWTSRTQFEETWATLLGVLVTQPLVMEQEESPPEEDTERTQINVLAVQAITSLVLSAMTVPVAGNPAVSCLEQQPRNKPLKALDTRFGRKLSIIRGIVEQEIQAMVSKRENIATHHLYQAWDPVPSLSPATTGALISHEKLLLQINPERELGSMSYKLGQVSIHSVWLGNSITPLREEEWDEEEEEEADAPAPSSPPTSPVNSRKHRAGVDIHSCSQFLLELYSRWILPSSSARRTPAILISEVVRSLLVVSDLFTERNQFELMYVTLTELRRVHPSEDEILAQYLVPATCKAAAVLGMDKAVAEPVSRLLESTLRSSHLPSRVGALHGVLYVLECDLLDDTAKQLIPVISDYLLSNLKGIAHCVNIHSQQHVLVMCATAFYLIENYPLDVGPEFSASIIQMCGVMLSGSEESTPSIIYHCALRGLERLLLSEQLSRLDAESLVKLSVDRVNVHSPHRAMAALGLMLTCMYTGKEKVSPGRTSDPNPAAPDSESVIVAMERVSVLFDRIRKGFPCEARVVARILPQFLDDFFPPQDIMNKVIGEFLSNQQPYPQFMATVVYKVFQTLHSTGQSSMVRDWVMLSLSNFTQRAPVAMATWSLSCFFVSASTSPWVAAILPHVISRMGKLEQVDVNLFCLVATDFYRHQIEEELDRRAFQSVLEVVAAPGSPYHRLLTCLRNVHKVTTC"}, "source": "patent US20190192524A1", "about": "“Modulators of Caspase-6” (The University of British Columbia, priority 2014, published 2019)", "key": {"[1]": {"molecular_target": "1212 amino acid HTT fragment (wt htt, amino acids 1-1212 of huntingtin, N-terminal His-tag) (human) (UniProt P42858)", "assay": "co-immunoprecipitation with a caspase-6 antibody from co-transfected COS-7 cell lysates, Western blot"}, "[2]": {"molecular_target": "1212 amino acid HTT fragment (wt htt, amino acids 1-1212 of huntingtin, N-terminal His-tag) (human) (UniProt P42858)", "assay": "co-immunoprecipitation with a caspase-6 antibody from co-transfected COS-7 cell lysates, Western blot with Htt antibody 2166"}}, "note": "These are yes or no findings as the source states them, for the method shown. In cells and extracts the contact can be indirect. Some binding calls cover weakened binding; strength is not graded here. Tags and fused reporters may be left off the sequences shown.", "data": [{"binder": "full-length human caspase-6 (amino acids 1-293 of human caspase-6 with C-terminal DDK-tag) (enzyme) MSSASGLRRGHPAGGEENMTETDAFYKREMFDPAEKYKMDHRRRGIALIFNHERFFWHLTLPERRGTCADRDNLTRRFSDLGFEVKCFNDLKAEELLLKIHEVSTVSHADADCFVCVFLSHGEGNHIYAYDAKIEIQTLTGLFKGDKCHSLVGKPKIFIIQACRGNQHDVPVIPLDVVDNQTEKLDTNITEVDAASVYTLPAGADFLMCYSVAEGYYSHRETVNGSWYIQDLCEMLGKYGSSLEFTELLTLVNRKVSQRRVDFCKDPSAIGKKQVPCFASMLTKKLHFFPKSNTRTPLEQKLISEEDLAAMISWITRDDDDKV", "values": [{"measurement": "binding", "setting": "[1]", "result": "binds"}, {"measurement": "binding", "setting": "[2]", "result": "binds"}]}]}
